Results taken from patent publication US9127027B2, “Epoxyeicosatrienoic acid analogs and methods of making and using the same” (The Medical College of Wisconsin, Inc., priority 2011, dated 2015).

Tested on: Hela, NCCIT and U87
Assay: Cell viability (alamar blue) in cancer cell lines
Type: cell-based, human
Conditions: range over Hela, 72 h, read-out: IC50 cell growth inhibition
Procedure: In this study, HEK293, U87MG, Hela cell-lines were obtained from the ATCC (Manassas, Va., USA) (HEK293, U87MG, Hela), and NCCIT was collected from Department of Pediatrics, UT Southwestern Medical Center at Dallas, Tex., USA. All cell lines were maintained in DMEM or RPIM with 10% fetal bovine serum and penicillin/streptomycin purchased from Life Technologies (Grand Island, N.Y., USA). Cisplatin was purchased from either Sigma (St. Louis, Mo., USA) or CalBiochem/EMD Biosciences (Billerica, Mass., USA). Cells were seeded in 96-well plates at 500 to 4,000 cells per well depends on cell type. […] Cell viability was measured by alamar blue assay using resazurin (Sigma Aldrich) according to the manufacturer's guidelines. Viability results were measured by fluorescence/absorbance in a 96-well plate reader from BMG Labtech (Cary, N.C., USA) and the IC50 was calculated by GraphPad Prism® software (GraphPad Software Inc, La Jolla, Calif., USA).

Compound: N.N.[Cl][Pt][Cl] [cisplatin]
- IC50: 1.1 to 9.24 µM
